# Laboratory results reported in PubChem BioAssay AID256 (DTP/NCI, 2004).
# The list does not hold the whole screen: it gathers tests that were run many times, whatever their T/C, doses with no T/C, and many T/C values between a quarter and a half above the control. Other doses and runs of a compound stand elsewhere. T/C is the treated group as % of the vehicle group. Some doses have a count of surviving animals in place of a T/C: the source files T/C as zero there, which appears to mark a toxic dose or a test without result, not a measured value. Some doses without a T/C left all or most animals alive at the check, yet need not have been tolerated: the source hardly ever lists a survival T/C far under the control, and the zero likely stands for such cases as well. Survivors were counted at the toxicity check, usually on the fifth day, unless a day is given; later deaths do not show. Schedules are NCI's codes, taken here to give the interval after Q, in days (D) or hours (H), and the number of doses after X. Some doses were run more than once; the results are listed from low to high. Where survival is the endpoint, this PubChem deposit counts one and a half times the control or more as active, and values a quarter to a half above the control carry no call in these data; other NCI protocols may use other cut-offs.
# System: CD2F1 mice, L1210 leukemia ip, survival T/C
# Assay: NCI In Vivo Anticancer Drug Screen. Data for tumor model L1210 Leukemia (intraperitoneal) in CD2F1 (CDF1) mice
# Settings: higher T/C = longer survival
# How it was run: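 Mice carrying a transplanted tumor received test compound or vehicle alone. The value is the measurement in the treated group divided by that in the vehicle-treated control group.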
# [1] = T/C endpoint: mean survival time, dose: 100.0 mg/kg/injection, schedule: Q04DX003 (ip), vehicle: saline
# [2] = T/C endpoint: mean survival time, dose: 200.0 mg/kg/injection, schedule: Q04DX003 (ip), vehicle: saline
# [3] = T/C endpoint: mean survival time, dose: 400.0 mg/kg/injection, schedule: Q04DX003 (ip), vehicle: saline with Tween-80
# [4] = T/C endpoint: mean survival time, dose: 200.0 mg/kg/injection, schedule: Q01DX009 (ip), vehicle: saline with Tween-80
# [5] = T/C endpoint: mean survival time, dose: 150.0 mg/kg/injection, schedule: Q01DX001 (ip), vehicle: saline
# [6] = T/C endpoint: mean survival time, dose: 300.0 mg/kg/injection, schedule: Q01DX001 (ip), vehicle: saline
# [7] = T/C endpoint: mean survival time, dose: 400.0 mg/kg/injection, schedule: Q01DX009 (ip), vehicle: saline
# [8] = T/C endpoint: mean survival time, dose: 200.0 mg/kg/injection, schedule: Q01DX009 (ip), vehicle: saline
# [9] = T/C endpoint: mean survival time, dose: 200.0 mg/kg/injection, schedule: Q04DX002 (ip), vehicle: saline with Tween-80
# [10] = T/C endpoint: mean survival time, dose: 400.0 mg/kg/injection, schedule: Q04DX002 (ip), vehicle: saline with Tween-80
# [11] = T/C endpoint: mean survival time, dose: 200.0 mg/kg/injection, schedule: Q01DX009 (ip), vehicle: other
smiles,measurement,setting,value
[Cl][Pt+2][Cl].[NH-]CC1([NH-])CCCCC1,T/C,"T/C endpoint: mean survival time, dose: 3.12 mg/kg/injection, schedule: Q04DX003 (ip), vehicle: saline with Tween-80",127 % of control
same,T/C,"T/C endpoint: mean survival time, dose: 6.25 mg/kg/injection, schedule: Q04DX003 (ip), vehicle: saline with Tween-80",127 % of control
same,survivor count,"T/C endpoint: mean survival time, dose: 12.5 mg/kg/injection, schedule: Q04DX003 (ip), vehicle: saline",6 of 6
same,survivor count,"T/C endpoint: mean survival time, dose: 25.0 mg/kg/injection, schedule: Q04DX003 (ip), vehicle: saline",0 of 6
same,survivor count,"T/C endpoint: mean survival time, dose: 50.0 mg/kg/injection, schedule: Q04DX003 (ip), vehicle: saline",2 of 6
same,survivor count,[1],0 of 6
same,survivor count,[2],0 of 6
CCCC(C)C1=NC(C)(C)CCO1 (stereo unspecified),survivor count,"T/C endpoint: mean survival time, dose: 100.0 mg/kg/injection, schedule: Q04DX003 (ip), vehicle: saline with Tween-80",6 of 6
same,survivor count,"T/C endpoint: mean survival time, dose: 200.0 mg/kg/injection, schedule: Q04DX003 (ip), vehicle: saline with Tween-80",0 of 6
same,survivor count,[3],0 of 6
COC(=O)C(Cl)c1ccc2c(c1)OCO2 (stereo unspecified),survivor count,[4],2 of 6
same,survivor count,[3],4 of 6
CCCCCCCCCCCCCCCCCCOCC(CO)OC (stereo unspecified),survivor count,"T/C endpoint: median survival time, dose: 400.0 mg/kg/injection, schedule: Q01DX009 (ip), vehicle: saline with Tween-80",2 of 6
COc1cc(N2C(N)=NC(N)=NC2(C)C)cc(OC)c1OC,survivor count,[1],2 of 6
same,survivor count,[2],0 of 6
same,survivor count,"T/C endpoint: mean survival time, dose: 400.0 mg/kg/injection, schedule: Q04DX003 (ip), vehicle: saline",0 of 6
CNC(=O)Oc1ccc(N)cc1,survivor count,[5],0 of 6
same,survivor count,[6],0 of 6
CN(C)CCCNCCCCNCCCN(C)C,survivor count,[7],5 of 6
N=c1c2c(C(N)=O)cn(C3OC(CO)C(O)C3O)c2ncn1N (stereo unspecified),T/C,"T/C endpoint: mean survival time, dose: 33.3 mg/kg/injection, schedule: Q01DX005 (ip), vehicle: water",138 % of control
same,T/C,"T/C endpoint: mean survival time, dose: 50.0 mg/kg/injection, schedule: Q01DX005 (ip), vehicle: water",128 and 142 % of control
same,T/C,"T/C endpoint: mean survival time, dose: 75.0 mg/kg/injection, schedule: Q01DX005 (ip), vehicle: water",126 % of control
same,survivor count,"T/C endpoint: mean survival time, dose: 200.0 mg/kg/injection, schedule: Q01DX005 (ip), vehicle: water",0 of 6
CN(C)/C=N\c1ncnc2c1c(C#N)cn2C1OC(CO)C(O)C1O (stereo unspecified),survivor count,"T/C endpoint: mean survival time, dose: 50.0 mg/kg/injection, schedule: Q01DX009 (ip), vehicle: saline",6 of 6
same,survivor count,"T/C endpoint: mean survival time, dose: 100.0 mg/kg/injection, schedule: Q01DX009 (ip), vehicle: saline",2 of 6
same,survivor count,[8],0 of 6
Nc1ccn(C2OC(COP(=O)(O)O)C(O)C2O)c(=O)n1 (stereo unspecified),T/C,"T/C endpoint: mean survival time, dose: 16.0 mg/kg/injection, schedule: Q01DX008 (oral), vehicle: saline",131 % of control
same,T/C,"T/C endpoint: mean survival time, dose: 32.0 mg/kg/injection, schedule: Q01DX008 (oral), vehicle: saline",143 % of control
same,T/C,"T/C endpoint: mean survival time, dose: 32.0 mg/kg/injection, schedule: Q04DX003 (ip), vehicle: saline",137 % of control
same,T/C,"T/C endpoint: mean survival time, dose: 64.0 mg/kg/injection, schedule: Q04DX003 (ip), vehicle: saline",144 % of control
same,T/C,"T/C endpoint: mean survival time, dose: 128.0 mg/kg/injection, schedule: Q01DX009 (ip), vehicle: saline",134 % of control
same,T/C,"T/C endpoint: mean survival time, dose: 128.0 mg/kg/injection, schedule: Q04DX003 (ip), vehicle: saline",141 % of control
same,T/C,"T/C endpoint: mean survival time, dose: 256.0 mg/kg/injection, schedule: Q04DX003 (ip), vehicle: saline",148 % of control
same,T/C,"T/C endpoint: mean survival time, dose: 512.0 mg/kg/injection, schedule: Q01DX001 (ip), vehicle: saline",135 % of control
same,T/C,"T/C endpoint: mean survival time, dose: 512.0 mg/kg/injection, schedule: Q04DX003 (oral), vehicle: saline",145 % of control
Cc1cc(NCCCCCCNc2cc(C)[n+](C)c3c(Cl)cccc23)c2cccc(Cl)c2[n+]1C,survivor count,"T/C endpoint: mean survival time, dose: 50.0 mg/kg/injection, schedule: Q01DX009 (ip), vehicle: Klucel (hydroxypropylcellulose) (HPC)",0 of 3
same,survivor count,"T/C endpoint: mean survival time, dose: 100.0 mg/kg/injection, schedule: Q01DX009 (ip), vehicle: Klucel (hydroxypropylcellulose) (HPC)",0 of 3
same,survivor count,"T/C endpoint: mean survival time, dose: 200.0 mg/kg/injection, schedule: Q01DX009 (ip), vehicle: Klucel (hydroxypropylcellulose) (HPC)",0 of 3
NOc1ccc([N+](=O)[O-])cc1[N+](=O)[O-],survivor count,"T/C endpoint: mean survival time, dose: 50.0 mg/kg/injection, schedule: Q01DX009 (ip), vehicle: saline with Tween-80",2 of 6
same,survivor count,"T/C endpoint: mean survival time, dose: 100.0 mg/kg/injection, schedule: Q01DX009 (ip), vehicle: saline with Tween-80",0 of 6
NC(CSC1(c2ccc(Cl)cc2)c2ccccc2-c2ccccc21)C(=O)O (stereo unspecified),survivor count,[8],2 of 6
same,survivor count,[7],0 of 6
O=S(=O)(F)c1ccc(S)c(Cl)c1Cl,survivor count,[9],0 of 3
same,survivor count,[10],1 of 3
[NH-]C(CCC(N)=O)C(=O)O.[NH-]C(CCC(N)=O)C(=O)O.[Zn+2] (stereo unspecified),survivor count,"T/C endpoint: median survival time, dose: 100.0 mg/kg/injection, schedule: Q01DX009 (ip), vehicle: saline with Tween-80",0 of 6
O=C1C2C3SC(c4nc5ccccc5cc43)C2C(=O)N1c1ccccc1 (stereo unspecified),survivor count,"T/C endpoint: mean survival time, dose: 100.0 mg/kg/injection, schedule: Q01DX001 (ip), vehicle: saline with Tween-80",3 of 3
Cc1nc(Cl)c(C)c(C(=O)O)n1,survivor count,[11],1 of 6
CN(Cc1ccccc1)c1ccc2nc(N)nc(N)c2c1,survivor count,[3],2 of 6
Cc1c(C#N)sc2ccccc12,survivor count,[11],0 of 6
same,survivor count,"T/C endpoint: mean survival time, dose: 400.0 mg/kg/injection, schedule: Q04DX003 (ip), vehicle: other",5 of 6
O=C(O)C(O)C(O)C(O)CO.[Zn+2] (stereo unspecified),survivor count,"T/C endpoint: mean survival time, dose: 100.0 mg/kg/injection, schedule: Q04DX002 (ip), vehicle: saline with Tween-80",0 of 3
same,survivor count,[9],0 of 3
same,survivor count,[10],0 of 3
CCCCCC#CC1OC12CCCCC2 (stereo unspecified),survivor count,"T/C endpoint: mean survival time, dose: 400.0 mg/kg/injection, schedule: Q01DX009 (sc), vehicle: saline with Tween-80",4 of 6
O=C(CCN1CC1)Nc1ccc(NC(=O)CCN2CC2)cc1,T/C,"T/C endpoint: mean survival time, dose: 10.0 mg/kg/injection, schedule: Q04DX003 (ip), vehicle: Klucel (hydroxypropylcellulose) (HPC)",137 % of control
same,T/C,"T/C endpoint: mean survival time, dose: 20.0 mg/kg/injection, schedule: Q04DX003 (ip), vehicle: Klucel (hydroxypropylcellulose) (HPC)",135 % of control
same,T/C,"T/C endpoint: mean survival time, dose: 40.0 mg/kg/injection, schedule: Q04DX003 (ip), vehicle: Klucel (hydroxypropylcellulose) (HPC)",147 % of control
C/C=C/C=C1/OC(C)=C(C(C)=O)C1=O,survivor count,[4],0 of 10
same,survivor count,"T/C endpoint: mean survival time, dose: 400.0 mg/kg/injection, schedule: Q01DX009 (ip), vehicle: saline with Tween-80",0 of 6 and 1 of 10
COc1ccc(Cl)cc1C/C=N/N(C)C,survivor count,[6],2 of 6
OC1(c2ccccc2)CCN(C/C=C/c2ccc(Cl)cc2)CC1,survivor count,"T/C endpoint: median survival time, dose: 100.0 mg/kg/injection, schedule: Q04DX003 (ip), vehicle: saline with Tween-80",3 of 3
same,survivor count,"T/C endpoint: median survival time, dose: 200.0 mg/kg/injection, schedule: Q04DX003 (ip), vehicle: saline with Tween-80",0 of 3
CC1[N-]C(/C=N/O)NC(C)N1.CC1[N-]C(/C=N/O)NC(C)N1.[Br][Ni+2][Br] (stereo unspecified),survivor count,[5],1 of 6
same,survivor count,[6],0 of 6
CCC(=O)OCC1OC(n2ccc(O)cc2=O)C(O)C1O (stereo unspecified),T/C,"T/C endpoint: median survival time, dose: 225.0 mg/kg/injection, schedule: Q01DX009 (ip), vehicle: saline + alcohol",142 % of control
COc1cccc2c1C(=O)c1c(O)c3c(c(O)c1C2=O)C[C@](O)(C(=O)CO)CC3OC1CC(N)C(OC2CCCCO2)C(C)O1 (stereo partly specified),T/C,"T/C endpoint: median survival time, dose: 6.0 mg/kg/injection, schedule: Q01DX009 (ip), vehicle: water",126 and 134 % of control
same,survivor count,"T/C endpoint: median survival time, dose: 12.0 mg/kg/injection, schedule: Q01DX009 (ip), vehicle: water",5 of 6
same,survivor count,"T/C endpoint: median survival time, dose: 24.0 mg/kg/injection, schedule: Q01DX009 (ip), vehicle: water",5 of 6
same,survivor count,"T/C endpoint: median survival time, dose: 25.0 mg/kg/injection, schedule: Q01DX009 (ip), vehicle: water",2 of 6
same,survivor count,"T/C endpoint: median survival time, dose: 50.0 mg/kg/injection, schedule: Q01DX009 (ip), vehicle: water",0 of 6
same,survivor count,"T/C endpoint: median survival time, dose: 100.0 mg/kg/injection, schedule: Q01DX009 (ip), vehicle: water",0 of 6
